The list shows a part of the results.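 The calls were made as follows: active = dose-dependent thermal stabilisation significant by F-test of dose-response against flat model at 10% FDR; inactive = not significant.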
compound: Nc1nc2c(ncn2[C@@H]2O[C@H](COP(=O)(O)OP(=O)(O)OP(=O)(O)O)[C@@H](O)[C@H]2O)c(=O)[nH]1; assay: dose-dependent thermal stabilisation call (2D-TPP, DLPTP, 10% FDR) (binary (1 = stabilised)); higher = stabilised by the compound; details: system: Jurkat gel-filtered lysate; concentration range 1-500 µM

By UniProt entry, the sequences of proteins in these tests, tags left out. Where a name states a change or a piece, a line headed by the entry shows the natural chain unless it says otherwise.
UniProt Q9UNS2: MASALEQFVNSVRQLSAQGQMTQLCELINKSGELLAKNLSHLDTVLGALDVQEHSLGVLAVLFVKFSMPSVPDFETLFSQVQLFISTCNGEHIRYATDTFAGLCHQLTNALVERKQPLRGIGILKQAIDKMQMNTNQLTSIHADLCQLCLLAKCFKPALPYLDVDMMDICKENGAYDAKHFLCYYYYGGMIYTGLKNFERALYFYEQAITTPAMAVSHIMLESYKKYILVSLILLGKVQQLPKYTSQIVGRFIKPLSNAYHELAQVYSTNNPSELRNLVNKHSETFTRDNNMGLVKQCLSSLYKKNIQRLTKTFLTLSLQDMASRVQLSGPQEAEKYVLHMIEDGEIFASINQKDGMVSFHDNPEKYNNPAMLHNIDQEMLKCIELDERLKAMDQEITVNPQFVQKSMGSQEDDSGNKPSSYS
UniProt Q86WR0: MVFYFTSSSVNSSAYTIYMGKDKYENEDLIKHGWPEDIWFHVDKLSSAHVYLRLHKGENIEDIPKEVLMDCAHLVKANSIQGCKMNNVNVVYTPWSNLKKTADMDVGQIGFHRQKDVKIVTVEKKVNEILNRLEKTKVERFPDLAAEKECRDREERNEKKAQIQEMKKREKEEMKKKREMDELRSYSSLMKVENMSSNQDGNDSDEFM
UniProt P50613: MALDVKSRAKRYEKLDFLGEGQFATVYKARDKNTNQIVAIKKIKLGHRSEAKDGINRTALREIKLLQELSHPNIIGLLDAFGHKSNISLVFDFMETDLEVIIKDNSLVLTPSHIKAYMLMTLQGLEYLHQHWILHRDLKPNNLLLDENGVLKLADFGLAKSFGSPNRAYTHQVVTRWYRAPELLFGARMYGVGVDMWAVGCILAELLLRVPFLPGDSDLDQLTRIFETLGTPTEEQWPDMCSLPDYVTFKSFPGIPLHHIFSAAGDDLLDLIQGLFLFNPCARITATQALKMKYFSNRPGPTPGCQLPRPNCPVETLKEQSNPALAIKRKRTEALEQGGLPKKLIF
UniProt P42574: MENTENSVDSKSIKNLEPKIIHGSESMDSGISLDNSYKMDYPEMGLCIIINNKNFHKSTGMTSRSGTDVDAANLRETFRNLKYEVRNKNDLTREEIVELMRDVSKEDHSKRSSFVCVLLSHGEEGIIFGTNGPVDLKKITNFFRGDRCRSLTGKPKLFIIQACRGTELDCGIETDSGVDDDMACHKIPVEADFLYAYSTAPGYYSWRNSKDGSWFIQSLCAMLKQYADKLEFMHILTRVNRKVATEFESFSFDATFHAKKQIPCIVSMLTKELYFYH
UniProt Q9UBW8: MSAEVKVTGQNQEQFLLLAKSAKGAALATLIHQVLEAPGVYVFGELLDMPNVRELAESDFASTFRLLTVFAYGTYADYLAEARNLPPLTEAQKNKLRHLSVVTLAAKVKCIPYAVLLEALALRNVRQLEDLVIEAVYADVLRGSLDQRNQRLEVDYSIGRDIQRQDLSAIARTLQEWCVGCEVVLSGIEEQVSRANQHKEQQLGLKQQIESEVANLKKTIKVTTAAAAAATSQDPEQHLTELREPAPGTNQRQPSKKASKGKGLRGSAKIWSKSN
UniProt Q9H9Q2: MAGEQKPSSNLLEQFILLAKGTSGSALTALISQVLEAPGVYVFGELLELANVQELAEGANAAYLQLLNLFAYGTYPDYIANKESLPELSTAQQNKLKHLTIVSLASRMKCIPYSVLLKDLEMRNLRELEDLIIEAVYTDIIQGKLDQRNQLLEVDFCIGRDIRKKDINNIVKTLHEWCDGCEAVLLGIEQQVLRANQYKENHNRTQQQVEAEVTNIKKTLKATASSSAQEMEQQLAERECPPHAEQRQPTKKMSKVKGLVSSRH
UniProt Q92989: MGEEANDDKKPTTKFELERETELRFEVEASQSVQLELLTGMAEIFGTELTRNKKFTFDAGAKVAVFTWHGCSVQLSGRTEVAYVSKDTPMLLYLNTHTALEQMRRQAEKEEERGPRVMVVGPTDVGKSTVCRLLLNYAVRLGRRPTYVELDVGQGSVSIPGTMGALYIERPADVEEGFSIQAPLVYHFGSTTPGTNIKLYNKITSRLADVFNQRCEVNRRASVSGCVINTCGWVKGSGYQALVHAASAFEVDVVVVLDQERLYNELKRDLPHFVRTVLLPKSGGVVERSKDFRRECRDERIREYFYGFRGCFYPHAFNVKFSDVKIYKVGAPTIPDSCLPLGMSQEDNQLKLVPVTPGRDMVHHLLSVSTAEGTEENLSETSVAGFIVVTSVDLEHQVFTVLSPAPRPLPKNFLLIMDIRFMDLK
UniProt Q5EBM0: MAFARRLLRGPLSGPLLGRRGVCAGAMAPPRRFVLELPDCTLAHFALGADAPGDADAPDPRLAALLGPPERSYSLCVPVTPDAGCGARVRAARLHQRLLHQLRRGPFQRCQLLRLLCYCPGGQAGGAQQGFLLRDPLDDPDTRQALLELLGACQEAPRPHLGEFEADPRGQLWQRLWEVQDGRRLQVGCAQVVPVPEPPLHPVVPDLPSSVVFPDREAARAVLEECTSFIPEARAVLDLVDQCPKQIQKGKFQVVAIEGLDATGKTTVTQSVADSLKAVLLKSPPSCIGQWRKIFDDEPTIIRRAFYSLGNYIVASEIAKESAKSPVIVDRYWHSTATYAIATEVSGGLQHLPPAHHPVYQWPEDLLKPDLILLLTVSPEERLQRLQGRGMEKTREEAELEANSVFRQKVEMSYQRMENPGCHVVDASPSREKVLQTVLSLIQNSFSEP
UniProt O60826, whole entry: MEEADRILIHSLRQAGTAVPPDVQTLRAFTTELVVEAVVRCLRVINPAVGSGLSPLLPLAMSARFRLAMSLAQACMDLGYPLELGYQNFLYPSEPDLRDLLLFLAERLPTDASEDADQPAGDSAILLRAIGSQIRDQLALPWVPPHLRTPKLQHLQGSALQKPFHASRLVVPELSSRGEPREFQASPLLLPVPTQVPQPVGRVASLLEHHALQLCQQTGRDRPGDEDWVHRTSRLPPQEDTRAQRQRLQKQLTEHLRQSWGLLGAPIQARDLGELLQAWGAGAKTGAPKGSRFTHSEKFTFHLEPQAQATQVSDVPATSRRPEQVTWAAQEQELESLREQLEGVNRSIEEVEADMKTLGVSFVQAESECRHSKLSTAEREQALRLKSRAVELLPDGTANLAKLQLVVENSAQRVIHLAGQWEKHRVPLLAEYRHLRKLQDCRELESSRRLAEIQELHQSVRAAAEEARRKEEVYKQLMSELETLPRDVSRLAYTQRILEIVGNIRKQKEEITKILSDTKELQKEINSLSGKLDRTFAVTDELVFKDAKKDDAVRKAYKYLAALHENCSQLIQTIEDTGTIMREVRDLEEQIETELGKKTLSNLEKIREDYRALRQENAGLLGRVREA
UniProt Q16543: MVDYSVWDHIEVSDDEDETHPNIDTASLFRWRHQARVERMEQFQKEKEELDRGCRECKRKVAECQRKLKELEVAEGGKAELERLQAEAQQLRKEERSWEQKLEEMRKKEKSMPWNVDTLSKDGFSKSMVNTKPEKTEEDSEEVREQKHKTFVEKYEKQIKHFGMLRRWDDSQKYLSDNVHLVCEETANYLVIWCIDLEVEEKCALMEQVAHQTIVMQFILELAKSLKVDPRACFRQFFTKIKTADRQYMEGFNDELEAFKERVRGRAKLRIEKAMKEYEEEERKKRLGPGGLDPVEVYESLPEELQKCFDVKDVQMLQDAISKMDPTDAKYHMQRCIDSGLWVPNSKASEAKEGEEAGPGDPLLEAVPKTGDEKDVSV
UniProt Q9UQN3, whole entry: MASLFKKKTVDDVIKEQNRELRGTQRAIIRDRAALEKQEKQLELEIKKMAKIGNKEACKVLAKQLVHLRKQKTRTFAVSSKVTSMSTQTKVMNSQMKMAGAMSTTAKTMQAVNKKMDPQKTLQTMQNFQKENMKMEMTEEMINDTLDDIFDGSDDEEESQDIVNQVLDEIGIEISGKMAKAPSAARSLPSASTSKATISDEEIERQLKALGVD
UniProt Q14004, whole entry, looked up: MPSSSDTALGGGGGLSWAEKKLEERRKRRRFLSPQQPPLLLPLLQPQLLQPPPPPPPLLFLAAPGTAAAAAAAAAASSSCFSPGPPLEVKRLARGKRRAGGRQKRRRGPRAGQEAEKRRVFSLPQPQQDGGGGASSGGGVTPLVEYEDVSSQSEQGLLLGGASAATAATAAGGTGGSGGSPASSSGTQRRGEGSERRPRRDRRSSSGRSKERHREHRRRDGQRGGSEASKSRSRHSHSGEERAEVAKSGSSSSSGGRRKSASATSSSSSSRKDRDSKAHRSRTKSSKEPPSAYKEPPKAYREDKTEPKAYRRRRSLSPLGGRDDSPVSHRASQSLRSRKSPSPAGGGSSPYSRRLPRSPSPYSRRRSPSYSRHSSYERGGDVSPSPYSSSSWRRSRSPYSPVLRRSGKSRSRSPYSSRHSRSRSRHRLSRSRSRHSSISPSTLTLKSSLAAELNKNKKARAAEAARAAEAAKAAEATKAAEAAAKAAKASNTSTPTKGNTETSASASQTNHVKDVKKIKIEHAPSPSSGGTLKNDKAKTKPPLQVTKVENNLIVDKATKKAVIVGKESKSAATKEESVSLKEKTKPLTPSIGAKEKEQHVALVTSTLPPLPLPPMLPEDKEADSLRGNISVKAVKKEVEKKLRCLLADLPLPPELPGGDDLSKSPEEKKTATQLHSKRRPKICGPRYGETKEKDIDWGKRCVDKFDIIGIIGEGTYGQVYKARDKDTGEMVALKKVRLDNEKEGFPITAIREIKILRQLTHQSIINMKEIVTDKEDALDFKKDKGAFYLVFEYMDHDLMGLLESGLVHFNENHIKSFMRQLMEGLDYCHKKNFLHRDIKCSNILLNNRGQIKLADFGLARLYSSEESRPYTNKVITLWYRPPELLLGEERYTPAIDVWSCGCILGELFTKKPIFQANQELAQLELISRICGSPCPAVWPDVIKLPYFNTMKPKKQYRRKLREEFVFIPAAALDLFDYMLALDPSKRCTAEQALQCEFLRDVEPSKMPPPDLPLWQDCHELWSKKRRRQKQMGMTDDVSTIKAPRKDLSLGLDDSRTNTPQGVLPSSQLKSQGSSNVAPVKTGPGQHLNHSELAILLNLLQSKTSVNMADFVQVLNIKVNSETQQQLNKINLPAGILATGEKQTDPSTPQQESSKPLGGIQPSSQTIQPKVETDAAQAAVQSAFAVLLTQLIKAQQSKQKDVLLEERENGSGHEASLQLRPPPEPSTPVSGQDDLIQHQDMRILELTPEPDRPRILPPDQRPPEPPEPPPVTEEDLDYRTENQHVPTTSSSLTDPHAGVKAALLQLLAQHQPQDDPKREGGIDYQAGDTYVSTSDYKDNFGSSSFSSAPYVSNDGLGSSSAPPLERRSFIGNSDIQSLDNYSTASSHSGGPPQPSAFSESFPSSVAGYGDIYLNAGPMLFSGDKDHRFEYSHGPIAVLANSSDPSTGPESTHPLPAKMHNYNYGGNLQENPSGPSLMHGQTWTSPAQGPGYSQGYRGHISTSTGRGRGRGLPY
UniProt Q8N137: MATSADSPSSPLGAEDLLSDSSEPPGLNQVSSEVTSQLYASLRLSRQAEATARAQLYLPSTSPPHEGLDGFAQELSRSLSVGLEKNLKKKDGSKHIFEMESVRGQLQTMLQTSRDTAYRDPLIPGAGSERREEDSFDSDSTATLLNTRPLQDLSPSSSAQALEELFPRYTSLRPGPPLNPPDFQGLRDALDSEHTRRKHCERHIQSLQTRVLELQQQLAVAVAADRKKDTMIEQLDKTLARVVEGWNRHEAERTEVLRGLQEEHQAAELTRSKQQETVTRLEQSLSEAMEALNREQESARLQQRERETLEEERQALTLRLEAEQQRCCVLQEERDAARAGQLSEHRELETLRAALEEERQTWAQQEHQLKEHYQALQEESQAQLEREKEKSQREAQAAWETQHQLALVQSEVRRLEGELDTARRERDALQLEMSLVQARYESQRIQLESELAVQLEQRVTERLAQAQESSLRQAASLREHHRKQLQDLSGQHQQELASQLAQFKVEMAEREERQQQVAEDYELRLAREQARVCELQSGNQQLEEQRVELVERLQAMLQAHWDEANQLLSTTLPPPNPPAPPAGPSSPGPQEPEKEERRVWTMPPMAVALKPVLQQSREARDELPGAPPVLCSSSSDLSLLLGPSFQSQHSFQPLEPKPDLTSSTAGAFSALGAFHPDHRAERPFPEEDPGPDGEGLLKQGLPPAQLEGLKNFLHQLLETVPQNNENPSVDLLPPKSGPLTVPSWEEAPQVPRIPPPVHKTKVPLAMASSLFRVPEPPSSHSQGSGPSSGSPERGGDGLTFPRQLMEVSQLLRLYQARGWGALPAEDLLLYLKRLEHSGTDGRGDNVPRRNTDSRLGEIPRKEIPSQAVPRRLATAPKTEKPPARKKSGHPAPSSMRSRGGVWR
UniProt Q13951, whole entry: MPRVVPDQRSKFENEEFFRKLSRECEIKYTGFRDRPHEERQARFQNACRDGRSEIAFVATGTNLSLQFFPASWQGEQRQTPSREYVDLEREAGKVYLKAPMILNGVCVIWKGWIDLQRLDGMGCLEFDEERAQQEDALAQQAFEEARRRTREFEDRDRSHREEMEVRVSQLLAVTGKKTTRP

Target	dose-dependent thermal stabilisation call
CASP10 (UniProt Q92851)	inactive: 0
COPE (UniProt O14579)	inactive: 0
CCP110 (UniProt O43303)	inactive: 0
COPS3 (UniProt Q9UNS2)	inactive: 0
CLTA (UniProt P09496)	inactive: 0
CASP9 (UniProt P55211)	inactive: 0
CCND3 (UniProt P30281)	inactive: 0
CCDC25 (UniProt Q86WR0)	inactive: 0
CHORDC1 (UniProt Q9UHD1)	inactive: 0
CEP350 (UniProt Q5VT06)	inactive: 0
CDK7 (UniProt P50613)	inactive: 0
CASP3 (UniProt P42574)	inactive: 0
COPS7A (UniProt Q9UBW8)	inactive: 0
CDC73 (UniProt Q6P1J9)	inactive: 0
CASP2 (UniProt P42575)	inactive: 0
COPS7B (UniProt Q9H9Q2)	inactive: 0
CCNH (UniProt P51946)	active: 1
CLP1 (UniProt Q92989)	inactive: 0

Target	dose-dependent thermal stabilisation call
CMPK2 (UniProt Q5EBM0)	active: 1
CCDC22 (UniProt O60826)	inactive: 0
CNOT6L (UniProt Q96LI5)	inactive: 0
CDC37 (UniProt Q16543)	inactive: 0
CDR2L (UniProt Q86X02)	inactive: 0
CNOT3 (UniProt O75175)	inactive: 0
CIAO1 (UniProt O76071)	active: 1
CCT3 (UniProt P49368)	inactive: 0
CHN2 (UniProt P52757)	inactive: 0
CHMP2B (UniProt Q9UQN3)	inactive: 0
CDK13 (UniProt Q14004)	inactive: 0
CDK12 (UniProt Q9NYV4)	active: 1
CNTROB (UniProt Q8N137)	inactive: 0
CENPF (UniProt P49454)	inactive: 0
CBFB (UniProt Q13951)	inactive: 0
CDH2 (UniProt P19022)	inactive: 0
CIAPIN1 (UniProt Q6FI81)	inactive: 0
COPS5 (UniProt Q92905)	inactive: 0

Some of the entries so far, with bars between the fields:
Target | dose-dependent thermal stabilisation call
CDR2L (UniProt Q86X02) | inactive: 0
CNOT3 (UniProt O75175) | inactive: 0
CIAO1 (UniProt O76071) | active: 1
CCT3 (UniProt P49368) | inactive: 0
CHN2 (UniProt P52757) | inactive: 0
CHMP2B (UniProt Q9UQN3) | inactive: 0
CDK13 (UniProt Q14004) | inactive: 0
CDK12 (UniProt Q9NYV4) | active: 1
CNTROB (UniProt Q8N137) | inactive: 0
CENPF (UniProt P49454) | inactive: 0

Source: the supplement of paper PMC7666118
